Data published in PubChem BioAssay AID1224860 (National Center for Advancing Translational Sciences (NCATS), 2016).
Inconclusive means that the source gave no clear call. Such entries were picked first, then a sample of the others. Potencies of inconclusive entries are doubtful fits and often do not repeat. Activity calls are given as the source filed them. The call rests on the fitted dose curve; in most records, active means well fitted cell-killing curve with a large enough effect; inconclusive means small, poorly fitted or top-dose-only effect; inactive means flat fitted curve, though single readings scatter.

experiment: Compound cytotoxicity measured by an ATP content assay as a counter-screen for lead compounds in human iPSC derived neural progenitor cells (hNPCs); conditions: human iPSC-derived NPC viability, ATP luminescence; series mostly up to 46.1 µM
Method: National Center for Advancing Translational Sciences [NCATS] Johns Hopkins University School of Medicine Florida State University Assay Overview: Many compounds can cause cytotoxicity at high compound concentrations. […] The compound cytotoxicity may also cause side effects or toxicity in human. Thus, the compound cytotoxicity needs to be measured in each cell type and each compound incubation time - same as these in the compound screening assay. The compound cytotoxicity can be measured by cell viability assays such as the ATP content assay. We use an ATP content assay kit for cell viability measurement. It measures ATP content (level) in human iPSC derived neural progenitor cells (hNPCs) using a luminescence readout that is proportional to viable cell numbers. Decrease in the luminescence signal after the compound treatment indicates reduced cell viability and cell death caused by compound treatment.
Assay Protocol Summary: The medium for hNPCs consists of DMEM/F12, N2 supplement (ThermoFisher, Cat.# 17502048), NEAA (ThermoFisher, Cat. # 11140050), 2 ug/ml heparin, 2 uM cyclopamine, and B27 (ThermoFisher, Cat. # 17504044). The ATP content assay kit (PerkinElmer, Cat.# 6016731) was used to determine cell viability. The reagent was reconstituted and prepared as described by the manufacturer. Cells were seeded in 384- or 1536-well assay plates and cultured at 37 C with 5% CO2 for 16 to 20 hours. The typical cell seeding density in the 1536-well plate assay is 350 cells/well in 3 ul medium for hNPCs in the tissue cultured treated/PDL coated plates. Compounds were added to cells and incubated for a specific time such as 6, 24, or 72 hours before addition of the reagent mixture of the ATP content assay kit at 1:1 ratio. After incubation at room temperature for 10 minutes, the luminescence intensity in assay plates was measured using a ViewLux plate reader (PerkinElmer). […] The percentage inhibitions of the decreased cell viability by small molecules were then calculated that indicate compound cytotoxicity.

SMILES	Potency
O=c1c(-c2ccc(O)cc2)coc2cc(O)ccc12	inconclusive: 8.69 µM [cytotoxic, single point]
CCN1/C(=C/C=C/c2sc3ccccc3[n+]2CC)Sc2ccccc21	inconclusive: 3.78 µM [cytotoxic, partial curve]
Nc1ncnc2c1ncn2[C@@H]1O[C@@H](CO)[C@H](O)[C@H]1O	inactive
CN(C)c1ccc(/C=C2\C(=O)Nc3ccccc32)cc1	active: 8.69 µM
CN(C)c1ccc(N=NS(=O)(=O)O)cc1	inconclusive: 12.6 µM [cytotoxic, partial curve, poor fit]
CCCC(=O)OC[C@@H](OC(=O)CCC)[C@@H](OC(=O)CCC)[C@H](Cn1c2nc(=O)[nH]c(=O)c-2nc2cc(C)c(C)cc21)OC(=O)CCC	inconclusive: 19.5 µM [cytotoxic, single point]
O=C(O)[C@H](CC(=O)N1C[C@@H]2CCCC[C@H]2C1)Cc1ccccc1	inactive
c1ccc2[nH]c(-c3cscn3)nc2c1	inconclusive: 27.5 µM [cytotoxic, single point]
Clc1ccccc1-c1nc(-c2ccncc2)no1	inconclusive: 13.8 µM [cytotoxic, partial curve]
Cc1cccc(C#Cc2ccccc2)n1	active: 9.75 µM
O=S(=O)(O)CCSSCCS(=O)(=O)O	inactive
O=C(Nc1ccc(OC(F)(F)F)cc1)c1sccc1NCc1ccnc2ccccc12	inconclusive: 21.8 µM [cytotoxic, partial curve, poor fit]
Nc1ccc(-c2ccc3ccccc3n2)cc1	inconclusive: 8.69 µM [cytotoxic, partial curve]
C[C@@H](O[C@H]1OCCN(Cc2n[nH]c(=O)[nH]2)[C@@H]1c1ccc(F)cc1)c1cc(C(F)(F)F)cc(C(F)(F)F)c1	inconclusive: 10.9 µM [cytotoxic, partial curve]
CCN1CCC(n2cc(CNc3cc(Cl)c4ncc(C#N)c(Nc5ccc(F)c(Cl)c5)c4c3)nn2)CC1	inconclusive: 8.69 µM [cytotoxic, partial curve]
Oc1ccc(/C=C/c2cc(O)cc(O)c2)cc1	active: 9.75 µM
C[C@@H]1CCN(C(=O)CC#N)C[C@H]1N(C)c1ncnc2[nH]ccc12	inactive
O=c1cc(-c2ccccc2)oc2cc(O)cc(O)c12	inactive
O=C(Nc1ccc([N+](=O)[O-])cc1Cl)c1cc(Cl)ccc1O	active: 8.69 µM
Cc1cc(O)c2c(c1)C(=O)c1cc(O)cc(O)c1C2=O	inactive

SMILES	Potency
O=c1c(-c2ccc(O)cc2)coc2cc(OC3O[C@H](CO)[C@H](O)[C@H](O)[C@H]3O)cc(O)c12 (stereo not given in full)	inconclusive: 10.9 µM [cytotoxic, partial curve]
O=C1C(Cl)=C(NCCN2CCOCC2)C(=O)c2ncccc21	active: 1.73 µM
COc1cc2nc(-c3ccc(N4CCN(C)CC4)cc3)nc(NCCN3CCOCC3)c2cc1OC	inconclusive: 13.8 µM [cytotoxic, partial curve, poor fit]
O=c1[nH]nc(Sc2ncc([N+](=O)[O-])s2)n1-c1ccc2c(c1)OCCO2	active: 1.73 µM
CC(=NNC(=S)N1CCC1)c1ccccn1	inconclusive: 7.74 µM [cytotoxic, single point]
O=C1c2ccccc2C(=O)c2c1ccc(O)c2O	inactive
Cc1cccc(/C=C/c2ccccc2)n1	inconclusive: 15.5 µM [cytotoxic, partial curve]
COc1ccc(NC(=O)/C=C/c2ccc(Cl)cc2)cc1	inconclusive: 9.75 µM [cytotoxic, partial curve]
CN(C)c1ccc(C(=C2C=CC(=[N+](C)C)C=C2)c2ccccc2)cc1	inconclusive: 0.436 µM [cytotoxic, full curve]
[O-][n+]1ccccc1SSc1cccc[n+]1[O-]	active: 0.112 µM
Cc1csc(NC(=O)c2sc3nc4c(c(C(F)(F)F)c3c2N)CCC4)n1	active: 1.95 µM
CC(C(=O)O)c1ccc(C(=O)c2cccs2)cc1 (stereo not given)	inconclusive: 0.218 µM [rising, partial curve, poor fit]
Cc1ccc2c(n1)Oc1ccc(C(C)C(=O)OCC(=O)N(C)C)cc1C2 (stereo not given)	inconclusive: 17.3 µM [cytotoxic, partial curve]
CCC(C)SSc1ncc[nH]1 (stereo not given)	active: 19.5 µM
C/C(=N\O)c1ccc(OCC(=O)N2CCCCC2)cc1	inconclusive: 13.8 µM [cytotoxic, partial curve]
Cc1ccc(O)c(-n2nc3ccccc3n2)c1	inconclusive: 15.5 µM [cytotoxic, partial curve]
O=S(=O)(O)c1ccc2nc(-c3ccccc3)[nH]c2c1	inactive
CC(C)(C)OC(=O)CN(Cc1ccc(Cl)cc1)Cc1ccc([N+](=O)[O-])s1	inconclusive: 35.5 µM [cytotoxic, single point]
COc1ccc2nc(NC(=O)Nc3ccccc3)sc2c1	active: 7.74 µM
Nc1cc(C(F)(F)F)ccc1S	active: 19.5 µM

In the list so far, these contain a COOH group:
SMILES	Potency
O=C(O)[C@H](CC(=O)N1C[C@@H]2CCCC[C@H]2C1)Cc1ccccc1	inactive
CC(C(=O)O)c1ccc(C(=O)c2cccs2)cc1 (stereo not given)	inconclusive: 0.218 µM [rising, partial curve, poor fit]
